Laboratory results: patent US20260258035A1, “FIVE-MEMBERED AND SIX-MEMBERED NITROGEN-CONTAINING COMPOUND, AND INTERMEDIATE, PREPARATION METHOD AND USE THEREOF” (HANGZHOU SYNRX THERAPEUTICS BIOMEDICAL TECHNOLOGY CO., LTD., priority 2022, published 2026)
Where “and” joins values, the source holds several entries; their conditions need not be identical. Equal entries are not always repeated. Where two headings read alike, the source gives them in different places. Structures were worked out from names or drawings and are uncertain.

Amino acid sequences for entries named in this document (tags omitted).
UniProt Q86W56, whole entry: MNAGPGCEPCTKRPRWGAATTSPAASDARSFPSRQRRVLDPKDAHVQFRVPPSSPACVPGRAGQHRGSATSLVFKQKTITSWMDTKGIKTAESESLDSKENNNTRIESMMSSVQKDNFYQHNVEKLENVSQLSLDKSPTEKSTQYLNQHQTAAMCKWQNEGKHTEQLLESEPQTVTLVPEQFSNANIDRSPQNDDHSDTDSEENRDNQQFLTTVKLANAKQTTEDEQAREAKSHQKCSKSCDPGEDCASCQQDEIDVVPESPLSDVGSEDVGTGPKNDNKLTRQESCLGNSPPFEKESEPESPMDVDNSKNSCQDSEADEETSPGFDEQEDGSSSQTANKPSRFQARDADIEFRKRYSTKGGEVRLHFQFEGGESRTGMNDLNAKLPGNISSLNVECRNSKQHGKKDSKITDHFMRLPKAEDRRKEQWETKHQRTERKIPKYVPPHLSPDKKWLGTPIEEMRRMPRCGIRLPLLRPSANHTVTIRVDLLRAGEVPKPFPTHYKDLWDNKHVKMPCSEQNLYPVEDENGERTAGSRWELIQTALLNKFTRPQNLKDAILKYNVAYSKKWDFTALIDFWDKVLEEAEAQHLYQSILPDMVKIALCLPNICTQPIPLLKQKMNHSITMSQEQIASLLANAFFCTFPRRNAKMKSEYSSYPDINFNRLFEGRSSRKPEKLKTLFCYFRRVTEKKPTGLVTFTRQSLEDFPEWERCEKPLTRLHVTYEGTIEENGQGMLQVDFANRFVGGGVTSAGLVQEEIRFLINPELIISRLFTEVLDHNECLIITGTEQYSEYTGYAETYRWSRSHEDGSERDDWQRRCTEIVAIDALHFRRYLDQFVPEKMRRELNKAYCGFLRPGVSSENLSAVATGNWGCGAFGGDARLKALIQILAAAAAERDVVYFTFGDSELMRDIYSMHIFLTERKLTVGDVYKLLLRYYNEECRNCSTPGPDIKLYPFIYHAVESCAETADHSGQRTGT

What was measured:
[1] = test system: HCC1806; assay: Cell viability assay (CellTiter-Glo); assay type: cell-based, Human; settings: read-out: IC50 (nM) in cell viability assay, HCC1806, 7 days
Method: • 1) HCC1806 (Nanjing Cobioer, ATCC cell bank, 200 cells/well) was plated in the 96-well plate, and incubated for 24 h in a CO2 (5%) incubator at 37° C. to allow for complete adherence of the cells; • 2) media (100 L/well) containing the compounds (final concentrations of compounds: 30000 nM, 10000 nM, 3000 nM, 1000 nM, 300 nM, 100 nM, 30 nM, 10 nM, 3 nM, 1 nM, 0 nM) were added to the cells, and then, incubated for 7 days in the C02 (50%) incubator at 37° C.; • 3) the culture plate containing the cells was held at room temperature for 30 min to equilibrate the plate and its contents to room temperature; • 4) CellTiter-Glo (Promega: V9101) reagent (100 μL/well) was added to each well of cells, and the contents were mixed on an orbital shaker for 2 minutes; • 5) the plate was incubated at room temperature for 10 min to stabilize the signal, and detected by the microplate reader (Thermo: VarioskanLUX); • 6) data were analyzed using GraphPad software to determine the IC50.

[2] = test system: Human breast squamous carcinoma cells HCC1806; assay: Cell function assay (In-Cell Western, PAR/pADPr after MMS); assay type: cell-based; settings: read-out: IC50 (nM) in cell function assay
Method: 2. Cell Function Assay (In-Cell Western)
• 1) Human breast squamous carcinoma cells HCC1806 (ATCC) were seeded to the 384-well plate (Corning, #3764) at 20,000 cells/well, incubated for 24 h in a CO2 (5%) incubator at 37° C. to allow for complete adherence of the cells; • 2) 120 nL compounds or DMSO were added to the 384-well plate by Echo 550 (LABCYTE, #550) (final concentrations of compounds: 30000 nM, 10000 nM, 3000 nM, 1000 nM, 300 nM, 100 nM, 30 nM, 10 nM, 3 nM, 1 nM, 0 nM), and then the cells were incubated for 1 h in a CO2 (5%) incubator at 37° C.; • 3) 40 nL MMS (methyl mesylate, Sigma, #129925)(final concentration: 0.5 mM) was added to the plate by Echo 550, and the cells were treated for 1 h in a CO2 (5%) incubator at 37° C. […]

[3] = biological target: PARG (Homo sapiens, UniProt Q86W56); assay: Biochemical assay (PARG, TFMU-ADPr substrate); settings: read-out: IC50 (nM) in biochemical assay
[4] = 4 nM PARG, 66.2 uM TFMU-ADPr, 3 min at room temperature

CC(C)C(=O)N1CCN(c2cc(S(=O)(=O)NC3(C)CCC3)cn3c(-c4nnc(C(F)F)s4)ncc23)CC1
IC50 [1]: 5000 to 30000 nM and 9890 nM
IC50 ([2]; HCC1806, In-Cell Western, MMS treatment): 324 nM
IC50 ([2]; HCC1806, compound 1 h then 0.5 mM MMS 1 h, PAR/pADPr antibody, In-Cell Western): 100 to 500 nM
IC50 [3, 4]: < 100 nM
IC50 ([3]; PARG, TFMU-ADPr substrate): 3.92 nM

COc1ccc(-c2cc(S(=O)(=O)NC3(C#N)CC3)cn3c(-c4nnc(C(F)F)s4)ncc23)cn1
IC50 [3, 4]: < 100 nM
IC50 ([3]; PARG, TFMU-ADPr substrate): 38.4 nM

CC1(O)CCN(c2cc(S(=O)(=O)NC3(C)COC3)cn3c(-c4nnc(C(F)F)s4)ncc23)CC1
IC50 [3, 4]: < 100 nM
IC50 ([3]; PARG, TFMU-ADPr substrate): 32.9 nM
